Holding throughout (experiment): co-IP
For test [1], the target named is KIF5A-BioID-3XFLAG (human) (UniProt Q12840).
Test [2] addresses T1, KIF1C-SNAPf-3XFLAG, full-length KIF1C (human) (UniProt O43896).
T1 sequence (chain, TMR via the SNAP-tag (in the TIRF assays)): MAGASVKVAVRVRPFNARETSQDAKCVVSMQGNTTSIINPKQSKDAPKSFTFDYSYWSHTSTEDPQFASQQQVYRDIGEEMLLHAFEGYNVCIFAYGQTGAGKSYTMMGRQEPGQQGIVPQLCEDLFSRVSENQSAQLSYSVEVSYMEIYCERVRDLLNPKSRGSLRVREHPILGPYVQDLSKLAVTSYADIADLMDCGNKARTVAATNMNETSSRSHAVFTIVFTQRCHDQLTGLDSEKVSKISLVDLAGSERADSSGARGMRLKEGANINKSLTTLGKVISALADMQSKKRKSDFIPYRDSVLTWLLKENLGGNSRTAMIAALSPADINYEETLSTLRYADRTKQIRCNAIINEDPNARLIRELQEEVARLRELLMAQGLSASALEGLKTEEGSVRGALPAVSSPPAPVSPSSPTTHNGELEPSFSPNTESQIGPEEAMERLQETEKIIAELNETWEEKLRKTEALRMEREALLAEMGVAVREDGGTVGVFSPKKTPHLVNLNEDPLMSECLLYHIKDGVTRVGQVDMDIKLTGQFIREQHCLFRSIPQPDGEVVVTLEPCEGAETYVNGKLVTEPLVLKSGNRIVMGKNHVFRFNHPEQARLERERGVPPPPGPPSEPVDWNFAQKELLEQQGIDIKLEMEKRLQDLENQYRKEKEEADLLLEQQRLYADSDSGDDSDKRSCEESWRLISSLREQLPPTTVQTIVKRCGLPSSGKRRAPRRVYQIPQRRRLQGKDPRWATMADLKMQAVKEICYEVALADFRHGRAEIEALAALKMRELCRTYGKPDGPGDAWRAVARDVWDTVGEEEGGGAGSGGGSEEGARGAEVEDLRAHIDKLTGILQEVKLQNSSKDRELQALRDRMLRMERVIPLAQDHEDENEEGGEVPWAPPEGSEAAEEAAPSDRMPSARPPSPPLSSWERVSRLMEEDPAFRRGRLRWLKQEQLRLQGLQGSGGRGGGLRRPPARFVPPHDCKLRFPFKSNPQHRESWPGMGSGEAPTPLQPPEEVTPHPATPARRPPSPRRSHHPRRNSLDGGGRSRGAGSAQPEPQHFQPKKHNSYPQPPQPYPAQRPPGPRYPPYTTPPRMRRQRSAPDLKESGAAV

Amino acid sequences for entries named in this document (tags omitted).
UniProt Q12840: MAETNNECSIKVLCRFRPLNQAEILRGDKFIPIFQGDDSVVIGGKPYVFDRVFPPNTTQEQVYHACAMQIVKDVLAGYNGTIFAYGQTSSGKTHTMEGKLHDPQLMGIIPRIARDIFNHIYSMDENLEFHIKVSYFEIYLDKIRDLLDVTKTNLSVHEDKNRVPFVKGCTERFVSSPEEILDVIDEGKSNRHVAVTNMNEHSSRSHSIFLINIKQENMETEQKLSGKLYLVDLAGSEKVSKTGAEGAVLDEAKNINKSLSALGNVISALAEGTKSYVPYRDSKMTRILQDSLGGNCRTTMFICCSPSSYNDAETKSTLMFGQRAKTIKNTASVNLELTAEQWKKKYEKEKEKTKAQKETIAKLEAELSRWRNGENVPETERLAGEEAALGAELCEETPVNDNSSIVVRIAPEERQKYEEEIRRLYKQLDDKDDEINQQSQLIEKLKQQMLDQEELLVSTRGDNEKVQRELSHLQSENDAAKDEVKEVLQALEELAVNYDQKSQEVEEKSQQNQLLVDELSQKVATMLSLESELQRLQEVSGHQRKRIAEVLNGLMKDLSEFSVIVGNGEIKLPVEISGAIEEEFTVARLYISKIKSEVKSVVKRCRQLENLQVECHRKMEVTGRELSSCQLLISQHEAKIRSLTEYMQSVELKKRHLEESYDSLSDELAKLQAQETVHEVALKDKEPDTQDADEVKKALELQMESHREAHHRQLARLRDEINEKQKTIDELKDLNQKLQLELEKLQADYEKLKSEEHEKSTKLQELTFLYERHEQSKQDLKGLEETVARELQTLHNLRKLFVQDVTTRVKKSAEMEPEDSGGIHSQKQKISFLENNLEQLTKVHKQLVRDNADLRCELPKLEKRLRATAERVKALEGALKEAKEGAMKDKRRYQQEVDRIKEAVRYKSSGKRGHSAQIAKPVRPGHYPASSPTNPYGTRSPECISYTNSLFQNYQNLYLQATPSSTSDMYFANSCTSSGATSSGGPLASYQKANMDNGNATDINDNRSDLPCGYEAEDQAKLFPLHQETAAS
UniProt O60282: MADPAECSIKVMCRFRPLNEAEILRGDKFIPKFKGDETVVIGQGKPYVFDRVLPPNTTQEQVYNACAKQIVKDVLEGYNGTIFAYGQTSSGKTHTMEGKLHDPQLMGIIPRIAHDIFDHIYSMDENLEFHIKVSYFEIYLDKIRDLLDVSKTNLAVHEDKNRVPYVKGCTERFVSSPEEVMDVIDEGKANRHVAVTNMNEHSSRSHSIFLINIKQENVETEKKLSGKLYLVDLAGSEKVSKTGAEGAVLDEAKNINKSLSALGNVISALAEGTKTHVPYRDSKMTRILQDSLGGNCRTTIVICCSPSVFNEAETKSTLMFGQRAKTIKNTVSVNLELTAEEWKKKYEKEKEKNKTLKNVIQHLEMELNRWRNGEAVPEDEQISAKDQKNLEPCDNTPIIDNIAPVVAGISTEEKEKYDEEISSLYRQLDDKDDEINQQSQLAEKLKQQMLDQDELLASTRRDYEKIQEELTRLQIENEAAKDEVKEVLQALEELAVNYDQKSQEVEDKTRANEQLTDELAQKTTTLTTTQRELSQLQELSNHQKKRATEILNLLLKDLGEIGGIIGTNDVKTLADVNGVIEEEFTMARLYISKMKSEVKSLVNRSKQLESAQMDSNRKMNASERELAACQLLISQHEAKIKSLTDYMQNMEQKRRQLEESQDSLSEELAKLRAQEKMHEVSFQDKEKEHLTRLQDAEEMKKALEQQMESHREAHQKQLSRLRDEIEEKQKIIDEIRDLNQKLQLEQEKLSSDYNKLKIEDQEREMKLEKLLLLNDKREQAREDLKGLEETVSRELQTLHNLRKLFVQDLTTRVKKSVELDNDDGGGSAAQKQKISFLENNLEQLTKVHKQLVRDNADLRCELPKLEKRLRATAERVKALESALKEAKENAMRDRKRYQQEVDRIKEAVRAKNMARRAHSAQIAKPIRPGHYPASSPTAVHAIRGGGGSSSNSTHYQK
UniProt O60333: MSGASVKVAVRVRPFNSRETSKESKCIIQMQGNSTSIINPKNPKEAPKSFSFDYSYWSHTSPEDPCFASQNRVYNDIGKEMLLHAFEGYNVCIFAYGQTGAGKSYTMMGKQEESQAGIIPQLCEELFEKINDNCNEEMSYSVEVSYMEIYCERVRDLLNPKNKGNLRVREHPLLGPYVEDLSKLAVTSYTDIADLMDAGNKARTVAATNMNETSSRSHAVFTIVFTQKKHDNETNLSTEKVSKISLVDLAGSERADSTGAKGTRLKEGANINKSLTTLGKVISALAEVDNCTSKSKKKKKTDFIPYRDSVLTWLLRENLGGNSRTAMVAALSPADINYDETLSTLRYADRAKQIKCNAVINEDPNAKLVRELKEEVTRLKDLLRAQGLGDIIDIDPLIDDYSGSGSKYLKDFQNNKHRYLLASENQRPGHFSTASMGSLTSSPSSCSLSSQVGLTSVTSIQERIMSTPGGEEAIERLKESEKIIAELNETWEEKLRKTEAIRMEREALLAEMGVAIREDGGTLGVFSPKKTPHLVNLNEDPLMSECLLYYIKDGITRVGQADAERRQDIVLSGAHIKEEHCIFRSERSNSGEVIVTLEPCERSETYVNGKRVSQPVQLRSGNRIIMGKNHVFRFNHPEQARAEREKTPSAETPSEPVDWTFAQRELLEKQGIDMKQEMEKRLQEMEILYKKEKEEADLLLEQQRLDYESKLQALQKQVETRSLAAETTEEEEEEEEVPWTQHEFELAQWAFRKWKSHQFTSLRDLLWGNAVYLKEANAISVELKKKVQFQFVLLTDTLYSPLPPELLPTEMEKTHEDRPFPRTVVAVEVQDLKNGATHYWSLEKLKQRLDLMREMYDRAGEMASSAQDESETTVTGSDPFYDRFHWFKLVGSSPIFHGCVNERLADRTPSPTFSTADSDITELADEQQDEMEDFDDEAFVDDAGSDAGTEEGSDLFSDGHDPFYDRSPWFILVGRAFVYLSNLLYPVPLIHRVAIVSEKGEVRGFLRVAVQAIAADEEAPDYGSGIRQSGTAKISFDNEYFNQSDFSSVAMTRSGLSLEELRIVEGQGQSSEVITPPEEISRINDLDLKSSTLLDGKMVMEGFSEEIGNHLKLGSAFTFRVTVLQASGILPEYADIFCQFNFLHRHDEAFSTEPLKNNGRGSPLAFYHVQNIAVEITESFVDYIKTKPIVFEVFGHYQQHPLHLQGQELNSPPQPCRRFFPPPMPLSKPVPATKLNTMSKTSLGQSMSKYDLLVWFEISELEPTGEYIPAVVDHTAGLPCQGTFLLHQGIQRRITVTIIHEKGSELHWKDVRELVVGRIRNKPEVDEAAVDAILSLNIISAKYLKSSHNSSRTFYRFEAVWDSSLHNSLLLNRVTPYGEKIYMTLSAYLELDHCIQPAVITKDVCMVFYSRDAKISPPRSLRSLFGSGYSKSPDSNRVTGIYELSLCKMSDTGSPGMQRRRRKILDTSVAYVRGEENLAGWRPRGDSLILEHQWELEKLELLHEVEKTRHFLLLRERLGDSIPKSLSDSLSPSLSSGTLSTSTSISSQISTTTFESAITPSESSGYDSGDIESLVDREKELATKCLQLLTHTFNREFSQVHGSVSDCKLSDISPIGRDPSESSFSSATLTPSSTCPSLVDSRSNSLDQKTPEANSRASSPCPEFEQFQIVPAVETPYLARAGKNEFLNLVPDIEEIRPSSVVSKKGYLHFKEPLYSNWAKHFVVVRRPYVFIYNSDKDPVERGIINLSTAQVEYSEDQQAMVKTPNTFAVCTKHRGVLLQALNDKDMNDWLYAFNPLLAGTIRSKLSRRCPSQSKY
UniProt Q12756: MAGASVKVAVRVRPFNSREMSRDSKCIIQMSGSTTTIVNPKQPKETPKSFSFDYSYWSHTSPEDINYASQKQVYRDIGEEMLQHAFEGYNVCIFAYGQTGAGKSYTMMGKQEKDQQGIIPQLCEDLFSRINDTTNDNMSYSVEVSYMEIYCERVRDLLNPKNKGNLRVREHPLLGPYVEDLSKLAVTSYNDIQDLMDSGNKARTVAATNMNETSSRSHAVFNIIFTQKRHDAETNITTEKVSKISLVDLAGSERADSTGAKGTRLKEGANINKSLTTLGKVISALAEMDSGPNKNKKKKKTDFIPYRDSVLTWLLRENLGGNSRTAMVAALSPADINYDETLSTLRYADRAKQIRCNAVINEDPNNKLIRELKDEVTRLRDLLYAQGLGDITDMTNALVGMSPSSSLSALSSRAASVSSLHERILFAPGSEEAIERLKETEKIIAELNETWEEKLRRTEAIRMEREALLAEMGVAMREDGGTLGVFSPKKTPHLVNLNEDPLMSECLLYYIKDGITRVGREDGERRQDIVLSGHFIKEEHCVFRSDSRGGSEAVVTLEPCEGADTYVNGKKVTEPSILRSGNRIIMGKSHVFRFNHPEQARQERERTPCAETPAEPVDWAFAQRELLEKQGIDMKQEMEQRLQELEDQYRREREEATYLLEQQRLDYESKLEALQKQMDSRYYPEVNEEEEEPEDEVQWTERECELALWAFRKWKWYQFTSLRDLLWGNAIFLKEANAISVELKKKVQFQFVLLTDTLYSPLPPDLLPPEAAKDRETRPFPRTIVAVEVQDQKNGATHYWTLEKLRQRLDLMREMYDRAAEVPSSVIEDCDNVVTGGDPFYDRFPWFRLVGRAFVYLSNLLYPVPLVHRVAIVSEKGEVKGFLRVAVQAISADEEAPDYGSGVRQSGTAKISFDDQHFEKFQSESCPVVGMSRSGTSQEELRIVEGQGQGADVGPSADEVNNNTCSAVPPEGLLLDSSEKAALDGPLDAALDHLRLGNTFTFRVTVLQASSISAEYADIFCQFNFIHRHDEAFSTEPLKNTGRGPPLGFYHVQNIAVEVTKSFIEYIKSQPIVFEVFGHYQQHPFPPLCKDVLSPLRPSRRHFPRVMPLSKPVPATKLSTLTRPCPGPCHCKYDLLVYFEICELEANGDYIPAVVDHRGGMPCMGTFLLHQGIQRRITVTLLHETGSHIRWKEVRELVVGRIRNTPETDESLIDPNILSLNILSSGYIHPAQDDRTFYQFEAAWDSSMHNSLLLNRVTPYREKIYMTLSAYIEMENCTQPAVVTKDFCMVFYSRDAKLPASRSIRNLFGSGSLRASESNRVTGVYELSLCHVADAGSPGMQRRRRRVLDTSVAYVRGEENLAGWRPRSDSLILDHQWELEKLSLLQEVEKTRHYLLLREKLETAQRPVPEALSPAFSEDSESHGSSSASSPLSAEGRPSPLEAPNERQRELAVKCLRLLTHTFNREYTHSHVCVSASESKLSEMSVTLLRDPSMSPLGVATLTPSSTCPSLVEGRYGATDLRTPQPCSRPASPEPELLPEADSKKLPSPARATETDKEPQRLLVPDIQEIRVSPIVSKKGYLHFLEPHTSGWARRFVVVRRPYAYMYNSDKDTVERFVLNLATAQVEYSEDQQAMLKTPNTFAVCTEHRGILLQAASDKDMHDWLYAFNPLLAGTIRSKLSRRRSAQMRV

Test [3] addresses KIF1C^Δ794-807-SNAPf-3XFLAG (human) (UniProt O43896).
The target of test [4] is KIF5C-BioID-3XFLAG (human) (UniProt O60282).
In test [5] the target is T2, KIF1C-BioID-3XFLAG (human) (UniProt O43896).
T2 sequence: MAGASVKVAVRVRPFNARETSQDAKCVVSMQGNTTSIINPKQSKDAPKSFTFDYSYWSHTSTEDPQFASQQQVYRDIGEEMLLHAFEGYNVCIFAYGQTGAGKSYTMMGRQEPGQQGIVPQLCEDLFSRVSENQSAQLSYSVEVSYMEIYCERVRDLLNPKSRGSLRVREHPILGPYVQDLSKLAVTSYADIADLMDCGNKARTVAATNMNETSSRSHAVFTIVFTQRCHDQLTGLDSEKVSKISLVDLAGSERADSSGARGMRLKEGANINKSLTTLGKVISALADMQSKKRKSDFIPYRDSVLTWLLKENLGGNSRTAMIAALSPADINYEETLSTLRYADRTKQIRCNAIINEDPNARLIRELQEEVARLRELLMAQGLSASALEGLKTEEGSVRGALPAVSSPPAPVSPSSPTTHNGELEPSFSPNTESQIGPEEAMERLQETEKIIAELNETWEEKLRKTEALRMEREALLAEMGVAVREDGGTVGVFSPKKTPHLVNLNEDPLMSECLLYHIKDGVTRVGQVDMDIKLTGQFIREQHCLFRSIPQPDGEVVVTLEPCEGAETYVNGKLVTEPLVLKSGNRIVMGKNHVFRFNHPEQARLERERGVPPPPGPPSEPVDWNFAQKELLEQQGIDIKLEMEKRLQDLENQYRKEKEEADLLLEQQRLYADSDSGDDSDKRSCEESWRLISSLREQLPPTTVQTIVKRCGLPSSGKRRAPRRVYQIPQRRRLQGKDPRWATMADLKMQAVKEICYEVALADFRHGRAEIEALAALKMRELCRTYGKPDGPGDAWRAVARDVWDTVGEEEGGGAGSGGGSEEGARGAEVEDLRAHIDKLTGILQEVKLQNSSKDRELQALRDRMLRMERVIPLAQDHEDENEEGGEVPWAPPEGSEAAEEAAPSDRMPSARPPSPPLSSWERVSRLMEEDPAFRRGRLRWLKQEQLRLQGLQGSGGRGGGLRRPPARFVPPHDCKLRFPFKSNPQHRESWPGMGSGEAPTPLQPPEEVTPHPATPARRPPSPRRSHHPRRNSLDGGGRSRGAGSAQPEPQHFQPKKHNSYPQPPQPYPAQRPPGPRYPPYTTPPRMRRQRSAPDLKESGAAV

The target in test [6] is KIF1B-BioID-3XFLAG (human) (UniProt O60333).
The target of test [7] is KIF1A-BioID-3XFLAG (human) (UniProt Q12756).
In test [8] the target is T3, KIF5B-BioID-3XFLAG (human), P33176.
T3 chain: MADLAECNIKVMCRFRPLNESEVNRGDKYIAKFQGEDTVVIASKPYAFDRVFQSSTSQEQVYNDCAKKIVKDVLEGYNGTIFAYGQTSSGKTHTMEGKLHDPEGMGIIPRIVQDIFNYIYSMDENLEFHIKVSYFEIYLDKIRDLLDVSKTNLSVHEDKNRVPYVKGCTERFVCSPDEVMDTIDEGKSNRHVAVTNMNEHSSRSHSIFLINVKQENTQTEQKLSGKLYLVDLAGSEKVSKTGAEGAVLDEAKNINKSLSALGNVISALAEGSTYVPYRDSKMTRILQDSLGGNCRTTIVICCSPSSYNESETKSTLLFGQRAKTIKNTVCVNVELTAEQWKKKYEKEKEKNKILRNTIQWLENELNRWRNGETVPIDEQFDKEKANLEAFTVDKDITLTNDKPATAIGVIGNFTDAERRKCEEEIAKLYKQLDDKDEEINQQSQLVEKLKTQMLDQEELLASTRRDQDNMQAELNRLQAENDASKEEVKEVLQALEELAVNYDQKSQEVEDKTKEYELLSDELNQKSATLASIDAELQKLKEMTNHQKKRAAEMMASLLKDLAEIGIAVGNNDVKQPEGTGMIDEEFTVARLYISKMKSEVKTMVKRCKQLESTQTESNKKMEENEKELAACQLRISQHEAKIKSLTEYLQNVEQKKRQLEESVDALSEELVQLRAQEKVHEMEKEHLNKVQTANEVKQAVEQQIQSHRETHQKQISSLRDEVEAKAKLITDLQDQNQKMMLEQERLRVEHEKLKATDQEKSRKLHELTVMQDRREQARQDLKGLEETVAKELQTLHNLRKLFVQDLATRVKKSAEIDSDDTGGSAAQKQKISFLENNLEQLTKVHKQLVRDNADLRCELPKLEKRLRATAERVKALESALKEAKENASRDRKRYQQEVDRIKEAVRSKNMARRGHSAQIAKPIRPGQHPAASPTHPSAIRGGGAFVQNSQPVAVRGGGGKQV
The note with it: remark: other sources report otherwise.

No constants are given. Whether binding was seen depends on the method and setting. Binding seen in cells or lysates may run through a third protein. Some binding calls cover weakened binding; strength is not graded here. For some assays here: Where a sequence is shown, tags or fusion partners need not be part of it.

B1: HOOK3 (endogenous) (protein, UniProt Q86VS8 1-718)
chain: MFSVESLERAELCESLLTWIQTFNVDAPCQTVEDLTNGVVMAQVLQKIDPAYFDENWLNRIKTEVGDNWRLKISNLKKILKGILDYNHEILGQQINDFTLPDVNLIGEHSDAAELGRMLQLILGCAVNCEQKQEYIQAIMMMEESVQHVVMTAIQELMSKESPVSAGNDAYVDLDRQLKKTTEELNEALSAKEEIAQRCHELDMQVAALQEEKSSLLAENQVLMERLNQSDSIEDPNSPAGRRHLQLQTQLEQLQEETFRLEAAKDDYRIRCEELEKEISELRQQNDELTTLADEAQSLKDEIDVLRHSSDKVSKLEGQVESYKKKLEDLGDLRRQVKLLEEKNTMYMQNTVSLEEELRKANAARSQLETYKRQVVELQNRLSEESKKADKLDFEYKRLKEKVDSLQKEKDRLRTERDSLKETIEELRCVQAQEGQLTTQGLMPLGSQESSDSLAAEIVTPEIREKLIRLQHENKMLKLNQEGSDNEKIALLQSLLDDANLRKNELETENRLVNQRLLEVQSQVEELQKSLQDQGSKAEDSVLLKKKLEEHLEKLHEANNELQKKRAIIEDLEPRFNNSSLKIEELQEALRKKEEEMKQMEERYKKYLEKAKSVIRTLDPKQNQGAAPEIQALKNQLQERDRLFHSLEKEYEKTKSQREMEEKYIVSAWYNMGMTLHKKAAEDRLASTGSGQSFLARQRQATSSRRSYPGHVQPATAR
For the molecule B1, the binding result in test [1] is listed as “no binding”; in test [2] it was “binds”; in test [3], “no binding”; in test [4] it was “no binding”; in test [5] it was “binds”; in test [6], “no binding”. In addition, the binding result in test [7] was “no binding”.

B2: HOOK3 (endogenous), Q86VS8 1-718 (protein)
chain: MFSVESLERAELCESLLTWIQTFNVDAPCQTVEDLTNGVVMAQVLQKIDPAYFDENWLNRIKTEVGDNWRLKISNLKKILKGILDYNHEILGQQINDFTLPDVNLIGEHSDAAELGRMLQLILGCAVNCEQKQEYIQAIMMMEESVQHVVMTAIQELMSKESPVSAGNDAYVDLDRQLKKTTEELNEALSAKEEIAQRCHELDMQVAALQEEKSSLLAENQVLMERLNQSDSIEDPNSPAGRRHLQLQTQLEQLQEETFRLEAAKDDYRIRCEELEKEISELRQQNDELTTLADEAQSLKDEIDVLRHSSDKVSKLEGQVESYKKKLEDLGDLRRQVKLLEEKNTMYMQNTVSLEEELRKANAARSQLETYKRQVVELQNRLSEESKKADKLDFEYKRLKEKVDSLQKEKDRLRTERDSLKETIEELRCVQAQEGQLTTQGLMPLGSQESSDSLAAEIVTPEIREKLIRLQHENKMLKLNQEGSDNEKIALLQSLLDDANLRKNELETENRLVNQRLLEVQSQVEELQKSLQDQGSKAEDSVLLKKKLEEHLEKLHEANNELQKKRAIIEDLEPRFNNSSLKIEELQEALRKKEEEMKQMEERYKKYLEKAKSVIRTLDPKQNQGAAPEIQALKNQLQERDRLFHSLEKEYEKTKSQREMEEKYIVSAWYNMGMTLHKKAAEDRLASTGSGQSFLARQRQATSSRRSYPGHVQPATAR
In the case of B2, the binding entry in test [8] is “no binding”.
